Laboratory results taken from paper PMC12948281.
No constants are given. Whether binding was seen depends on the method and setting. In cells and extracts the contact can be indirect. Some results given as binding are weak or reduced against the parent protein; the word gives no strength.

How the values were obtained:
[1] = target: FLAG-FTH1 with the KFERQ-like motif QDIKK mutated to AAIKK (human) (UniProt P02794); experiment: co-IP; TS^CT cells transfected with FLAG-tagged FTH1 plasmids (WT or AAIKK) for 48 h, with or without testosterone (20 µM) for another 24 h; lysate precleared with protein A+G agarose, anti-FLAG M2 magnetic beads 1 h at room temperature, TBS washes; Western blot for endogenous Hsc70
[2] = target: wild-type (WT) FLAG-FTH1 (human) (UniProt P02794); experiment: as above

binding [1]: binds
binding [2]: binds
Substance: heat shock cognate protein Hsc70 (encoded by HSPA8), endogenous in TS^CT cells (from UniProt P11142 1-646)
